Experimental findings from article PMC10920091 are described below.

The chains behind the UniProt entries cited, without tags or fusion partners. Where a name states a change or a piece, a line headed by the entry shows the natural chain unless it says otherwise. A line that says so, or that is headed by a name, gives the form on record, which may keep a tag or linker.
PDE4D7-VSV (cAMP-specific 3',5'-cyclic phosphodiesterase 4D isoform 7, VSV-tagged) (Q08499, form named): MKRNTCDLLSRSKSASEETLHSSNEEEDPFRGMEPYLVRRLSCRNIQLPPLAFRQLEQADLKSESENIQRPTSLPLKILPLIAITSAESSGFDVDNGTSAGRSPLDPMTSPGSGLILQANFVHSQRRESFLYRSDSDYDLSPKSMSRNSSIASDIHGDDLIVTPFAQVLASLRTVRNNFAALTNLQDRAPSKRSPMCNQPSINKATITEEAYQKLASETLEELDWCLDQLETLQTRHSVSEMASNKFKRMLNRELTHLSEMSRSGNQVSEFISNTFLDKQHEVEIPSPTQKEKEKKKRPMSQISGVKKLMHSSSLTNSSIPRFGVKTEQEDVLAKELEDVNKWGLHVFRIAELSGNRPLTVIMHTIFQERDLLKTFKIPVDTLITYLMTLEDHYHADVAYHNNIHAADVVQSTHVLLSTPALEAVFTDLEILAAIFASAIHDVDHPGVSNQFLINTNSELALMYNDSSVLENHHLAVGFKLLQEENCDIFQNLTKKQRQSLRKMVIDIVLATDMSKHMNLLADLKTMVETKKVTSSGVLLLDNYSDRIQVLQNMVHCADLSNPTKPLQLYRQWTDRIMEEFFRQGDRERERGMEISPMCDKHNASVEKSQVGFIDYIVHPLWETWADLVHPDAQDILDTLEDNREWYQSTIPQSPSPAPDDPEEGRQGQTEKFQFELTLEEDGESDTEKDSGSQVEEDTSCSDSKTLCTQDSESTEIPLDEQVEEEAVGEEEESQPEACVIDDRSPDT
UniProt P11142: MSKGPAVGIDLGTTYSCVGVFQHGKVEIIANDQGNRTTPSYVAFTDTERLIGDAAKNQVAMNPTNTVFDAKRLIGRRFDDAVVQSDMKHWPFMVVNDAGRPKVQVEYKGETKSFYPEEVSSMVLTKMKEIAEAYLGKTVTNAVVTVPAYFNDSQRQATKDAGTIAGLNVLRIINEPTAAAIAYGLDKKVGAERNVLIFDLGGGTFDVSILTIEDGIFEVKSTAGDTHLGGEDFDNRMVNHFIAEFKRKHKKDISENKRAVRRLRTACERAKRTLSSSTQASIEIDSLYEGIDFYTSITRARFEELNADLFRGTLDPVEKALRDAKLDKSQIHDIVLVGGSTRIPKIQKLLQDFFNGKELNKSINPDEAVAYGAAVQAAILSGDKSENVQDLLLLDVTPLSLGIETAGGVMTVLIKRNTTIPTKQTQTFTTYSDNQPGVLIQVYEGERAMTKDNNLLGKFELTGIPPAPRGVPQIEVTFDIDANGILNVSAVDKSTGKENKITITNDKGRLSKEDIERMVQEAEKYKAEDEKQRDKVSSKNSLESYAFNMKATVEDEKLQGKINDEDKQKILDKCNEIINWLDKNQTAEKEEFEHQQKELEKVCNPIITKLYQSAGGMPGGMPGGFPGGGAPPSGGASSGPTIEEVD

Sequences and labels used below:
B1: octamer-binding protein (NONO) (protein, UniProt Q15233 1-471)
chain: MQSNKTFNLEKQNHTPRKHHQHHHQQQHHQQQQQQPPPPPIPANGQQASSQNEGLTIDLKNFRKPGEKTFTQRSRLFVGNLPPDITEEEMRKLFEKYGKAGEVFIHKDKGFGFIRLETRTLAEIAKVELDNMPLRGKQLRVRFACHSASLTVRNLPQYVSNELLEEAFSVFGQVERAVVIVDDRGRPSGKGIVEFSGKPAARKALDRCSEGSFLLTTFPRPVTVEPMDQLDDEEGLPEKLVIKNQQFHKEREQPPRFAQPGSFEYEYAMRWKALIEMEKQQQDQVDRNIKEAREKLEMEMEAARHEHQVMLMRQDLMRRQEELRRMEELHNQEVQKRKQLELRQEEERRRREEEMRRQQEEMMRRQQEGFKGTFPDAREQEIRMGQMAMGGAMGINNRGAMPPAPVPAGTPAPPGPATMMPDGTLGLTPPTTERFGQAATMEGIGAIGGTPPAFNRAAPGAEFAPNKRRRY

No constants are given. Whether binding was seen depends on the method and setting. In cells and extracts the contact can be indirect. Here binding means that the protein was enriched with, or labelled near, the bait; the list need not be complete.

For this test, the target named is PDE4D7-VSV (cAMP-specific 3',5'-cyclic phosphodiesterase 4D isoform 7, VSV-tagged) (human) (UniProt Q08499). The test is described as follows: affinity purification with mass spectrometry; HEK293 lysate overexpressing PDE4D7-VSV precipitated with VSV-agarose beads (control vector and FLAG-agarose beads as controls); Coomassie-stained bands excised and analysed by mass spectrometry.
With “heat shock cognate 71 kDa protein (HSPA8) (from UniProt P11142 1-646)”, the binding entry is “binds”.

As to “endogenous DHX9 (ATP-dependant RNA helicase A) (from UniProt Q08211-1 1-1270)”, the binding entry is on record as “binds”.

Turning to B1, the binding result is recorded as “binds”.
